Experimental data published in PubChem BioAssay AID588674 (Broad Institute, 2011).
In all, about 360,000 compounds went through this assay and about 1,800 (0.5%) were called active. The inconclusive results got no clear call from the source; some entries with a clear call stand among them for comparison.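 How the source made its calls: active means mean inhibition of at least 75% with every replicate also reaching 75%; inconclusive means mean inhibition at least 75% but some replicate below; inactive means mean inhibition below 75%.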

Assay: reduction of Shn3 3'UTR firefly luciferase signal, primary screen, Schnurri-3 inhibitor project, cell-based, Clone20 osteoblasts, set 2 (AID 588674);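 further: 0% = median of neutral control wells and 100% = pilot-screen positive control compound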
Details: Clone20 osteoblast Shn3 3'UTR firefly luciferase, 24 h; at 12.5 µM; hits give high values

| Compound | inhibition |
| --- | --- |
| Cc1cccc(NS(=O)(=O)c2ccc(C3CCCCC3)cc2)c1 | inconclusive: 86.7% |
| Nc1nc(F)nc2c1ncn2[C@@H]1O[C@H](CO)[C@@H](O)[C@H]1O | active: 95.7% |
| COc1ccc(N(C(=O)CCl)C(C(=O)NCCc2ccccc2)c2cccs2)cc1Cl (stereo not drawn) | inconclusive: 87.7% |
| CCOc1ccc(S(=O)(=O)N(C)c2ccc(OCC(=O)Nc3nc4ccccc4s3)cc2)cc1 | inconclusive: 86% |
| CCCCCCCN(c1ccccc1)[C@@H]1C[C@H]2CCCC(=O)N3CC[C@@H](C1)[C@@H]23 | inconclusive: 85.1% |
| CN(C)c1ccc(C=c2c3ccccc3n3c2cc(-c2ccc(Cl)cc2)[n+]3C)cc1 | inconclusive: 86.1% |
| Clc1ccc(OCCN2CCN(c3ncnc4sccc34)CC2)cc1 | inconclusive: 86.8% |
| COc1ccc(S(=O)(=O)N(C)C)cc1NC(=O)C1CCN(c2ncnc3sc(C)c(C)c23)CC1 | inconclusive: 85.2% |
| COc1c(C)cc(C(=O)C2CCCN(C(=O)c3cccc(-n4cccn4)c3)C2)cc1C (stereo not drawn) | inconclusive: 85.7% |
| Cn1ncc2c(N3CCN(c4ccc(Cl)c(Cl)c4)CC3)ncnc21 | inactive: 79.1% |
| COCC1CCN(C(=O)c2cc(COc3ccc4ncccc4c3)on2)CC1 | active: 85.6% |
| OC(c1cc(F)cc(Cl)c1)c1ncc(-c2ccccc2Cl)[nH]1 (stereo not drawn) | inactive: -7.48% |
| CC(=O)NC(CCc1ccc(Cl)c(Cl)c1)c1cccc(O)c(=O)c1 (stereo not drawn) | inconclusive: 81% |
| Cc1cc2c(c(=O)n1Cc1cccnc1)C(c1cccs1)C(C#N)=C(N)O2 (stereo not drawn) | inactive: -24.6% |
| Cc1ccc(OC(=O)CCC(=O)Oc2ccc(C)cc2C)c(C)c1 | inconclusive: 86.8% |
| CC(=NNC(=S)N1CCCCC1)c1ccccn1 | inconclusive: 88.9% |
| COc1ccc(CCC(=O)Nc2cccc(S(=O)(=O)N3CCCCCC3)c2)cc1OC | inactive: 24.1% |
| O=C(c1ccc(C(=O)N2CCN(c3ccccc3F)CC2)nc1)N1CCN(c2ccccc2F)CC1 | inactive: 10.1% |
| COc1ccc(-n2c(-c3ccc(Br)cc3)c[n+]3c2CCc2ccccc2-3)cc1 | inconclusive: 85.3% |
| CCN(CC)c1ccc(N)cc1 | inconclusive: 86.5% |
| CN(c1ccccc1)S(=O)(=O)c1cc(C(=O)OCC(=O)N2CCN(C(=O)c3ccco3)CC2)ccc1Cl | inconclusive: 85.6% |

| Compound | inhibition |
| --- | --- |
| COCCCNc1ccn2nc(-c3ccc(Cl)cc3)cc2n1 | inactive: -9.89% |
| CC(=O)c1ccc(N2CCN(c3ccc(S(=O)(=O)NCCCN(C)C)cc3[N+](=O)[O-])CC2)cc1 | inconclusive: 86.1% |
| COc1ccc(C(CCNCc2ccc(OC(C)C)cc2)c2ccccc2OC)cc1 (stereo not drawn) | active: 89.4% |
| O=C(c1ccc(-c2ccc(Cl)cc2)o1)N1CCN(c2ccc([N+](=O)[O-])cc2Cl)CC1 | inconclusive: 82.9% |
| CCN1/C(=C/c2ccc3ccccc3[n+]2CC)C=Cc2ccccc21 | active: 91.1% |
| O=C(NCc1ccccn1)c1ccc(OC2CCN(Cc3ccc(CO)o3)CC2)cc1 | inactive: -3.16% |
| Cc1ccc(CS(=O)(=O)c2ncc(Cl)c(C(=O)Nc3nnc(C)s3)n2)cc1 | active: 98.8% |
| COc1ccc(N(C)S(=O)(=O)c2ccc(Cl)c(C(=O)NNC(=O)c3ccccc3O)c2)cc1 | inactive: 6.18% |
| COC(=O)C1=C(C)N(Cc2ccccc2)C(=NCc2ccc(OC)cc2)N[C@H]1c1cccc(F)c1 | inconclusive: 85.4% |
| COc1cc(NC(=O)COc2cccc3c2OC(C)(C)C3)cc(OC)c1OC | inconclusive: 85.2% |
| CN(CCOc1ccc(Cl)cc1)C(=O)c1cccc(S(=O)(=O)N2CCN(c3ccc(F)cc3)CC2)c1 | active: 89% |
| O=C(C[C@@H]1C/C=C\C[C@H](NC(=O)OCC2c3ccccc3-c3ccccc32)C(=O)OC[C@@H]2CCCN2C1=O)N[C@H](CO)Cc1ccccc1 | inactive: -8.21% |
| COc1ccc(OC)c2sc(N(CCN(C)C)C(=O)/C=C/c3cccs3)nc12 | inconclusive: 85.7% |
| CCN(CC)C(=O)[C@H]1C[C@H](CC(=O)NC/C=C(\C)CCC=C(C)C)C(=O)N2CCc3c([nH]c4cc(CCC(=O)N(C)C)ccc34)[C@]12C | active: 89.8% |
| COCC(=O)OC1CCn2c1nc1c2C(=O)C(C)=C(NC(C)=O)C1=O (stereo not drawn) | active: 88.7% |
| O=C(c1ccccc1)c1cc(Cl)ccc1N1C(=O)C=CC1=O | inconclusive: 85.3% |
| CCN(CC)S(=O)(=O)c1cc(OC)ccc1N=Nc1ccc(O)c2ncccc12 | active: 90.5% |
| CCOCCCn1c(SCC(=O)Nc2cc(C(C)(C)C)nn2-c2ccccc2)nc2ccccc2c1=O | inactive: -8.28% |
| COc1cccc(/C=N/NC(=O)c2cc3c(OC)cccc3[nH]2)c1O | inconclusive: 85.7% |
| CCN(CC)S(=O)(=O)c1ccc(S(=O)(=O)N2CCCC(C(=O)NC3CC3)C2)cc1 (stereo not drawn) | inconclusive: 85.7% |
| CCN(C(C)=O)c1cnc(C=NNC(N)=S)c2ccccc12 | inconclusive: 88% |

| Compound | inhibition |
| --- | --- |
| Clc1ccc(C[n+]2cc(-c3ccccc3)n3c2CCCCC3)c(Cl)c1 | inconclusive: 86.8% |
| CCC(=O)N1CCN(c2ccc(NC(=O)c3ccc([N+](=O)[O-])o3)cc2)CC1 | inconclusive: 85.7% |
| C=C(C)[C@@H]1C2=CC(C(=O)OC)=C(C[C@H](C(=C)C)[C@H]3O[C@H]3C3=C[C@H]1OC3=O)O2 | active: 98.1% |
| COc1ccc(-c2noc(CCC(=O)NCCCN3CCC(Cc4ccccc4)CC3)n2)cc1 | inconclusive: 85.4% |
| c1cnc2c(c1)ccc1cccnc12 | inconclusive: 86.9% |
| CCCCCN1CC(=O)N2C(C)c3[nH]c4ccccc4c3C[C@H]2C1=O (stereo partly drawn) | inactive: 9.55% |
| Cc1ccc(SCCC(=O)N(C)CC(=O)Nc2c(C)cccc2C)cc1 | inactive: -12.8% |
| COc1ccccc1N/C(N)=N/c1nc(CSc2ccc(C)cc2)cc(=O)[nH]1 | inconclusive: 85.4% |
| Cc1ccc2ccc3ccc(C)nc3c2n1 | inconclusive: 85.5% |
| CC(=O)C1CCC2C3CC=C4CC(SC(=N)N)CCC4(C)C3CCC12C (stereo not drawn) | inconclusive: 81.4% |
| COc1ccc(NC(=O)CS(=O)c2ccccc2Cl)cc1 (stereo not drawn) | inactive: -23.3% |
| Cc1noc(C)c1COC(=O)[C@@H](NC(=O)c1ccccc1)C(C)C | inconclusive: 86.6% |
| O=C(NC(NC(=S)Nc1c(Cl)cc(Cl)cc1Cl)C(Cl)(Cl)Cl)OCc1ccccc1 (stereo not drawn) | inconclusive: 85.3% |
| COc1ccc(/C=C/c2cc(-c3ccc(C)cc3)o[n+]2C)cc1 | active: 82.7% |
| C/C(=N\NC(=O)c1nnn(-c2nonc2N)c1CN1CCc2ccccc21)c1ccccc1O | inconclusive: 87.2% |
| Cn1cc(S(=O)(=O)N2CCN(c3ccccc3)CC2)c(=O)n(C)c1=O | inconclusive: 81.7% |
| COc1ccc(NC(=O)COc2ccc(N(C)S(=O)(=O)c3ccc(Cl)cc3)cc2)cc1OC | inconclusive: 86.7% |
| CC(Sc1nc2ccccc2c(=O)n1C)C(=O)NC1CCCCC1C (stereo not drawn) | inconclusive: 85.3% |
| COc1cc(OC)c(OC)cc1CCC(C)NCCC(c1ccccc1)c1ccccc1 (stereo not drawn) | inconclusive: 86.9% |
| COc1cc(F)cc(-c2ccc3c(c2)c(C#Cc2ccsc2)c(-c2cc(OC)cc(OC)c2)n3C)c1 | inactive: -28.5% |
| Cc1cc(C)c(O)c(-c2cc(C(=O)Nc3ccc(S(=O)(=O)N4CCOCC4)cc3)[nH]n2)c1 | active: 91% |

Random excerpt: 2 compounds from above.

| Compound | inhibition |
| --- | --- |
| COc1ccccc1N/C(N)=N/c1nc(CSc2ccc(C)cc2)cc(=O)[nH]1 | inconclusive: 85.4% |
| Cc1ccc2ccc3ccc(C)nc3c2n1 | inconclusive: 85.5% |

Carrying on.

| Compound | inhibition |
| --- | --- |
| O=S(=O)(c1ccccc1C(F)(F)F)N1CCN(c2ncnc3sccc23)CC1 | inconclusive: 85.6% |
| CC(=O)N1CCN(C(=O)CCc2cc(C(C)(C)C)c(O)c(C(C)(C)C)c2)CC1 | inconclusive: 87% |
| O=C1C(Cl)=C(N2CCN(c3ccccc3[N+](=O)[O-])CC2)C(=O)c2ccccc21 | active: 95.7% |
| COc1ccc(-c2cn(-c3ccc(OC)cc3)c3[n+]2-c2ccccc2CC3)cc1 | inconclusive: 85.2% |
| CN(Cc1nc2ccccc2c(=O)[nH]1)C(=O)c1cc(C2CC2)nn1-c1ccccc1 | inactive: -18.8% |
| COc1cc(OC)cc(-c2cc3nc(C)c(CCC(=O)NCc4ccccc4)c(C)n3n2)c1 | inactive: 65.6% |
| CC1=CC(C)(C)Nc2ccc(Cc3ccc4c(c3)C(C)=CC(C)(C)N4)cc21 | inactive: 50.2% |
| COc1ccc(CNc2ncnc3sccc23)cc1 | inconclusive: 85.2% |
| COc1ccc(Nc2cccc3ccccc23)cc1 | inactive: -14.3% |
| O=C(/C(N=Nc1cccc(C(F)(F)F)c1)=C(/O)c1cccs1)C(F)(F)F | inactive: -11.2% |
| CCOc1ccc2nc(SC3CC(=O)N(c4ccc(C)cc4)C3=O)sc2c1 (stereo not drawn) | active: 95.6% |
| CC(C)(C)n1nc(-c2ccc(F)cc2)c2c(N)ncnc21 | inactive: 46.5% |
| Cn1nc(CC(=O)Nc2ccc3c(c2)OCCO3)c2ccccc2c1=O | inconclusive: 85.5% |
| COc1ccc(/C=C2/CCC(CN3CCOCC3)C2=O)cc1 (stereo not drawn) | inconclusive: 82.7% |
| CC[n+]1c(/C=C2/C=C(C)CC(C)(C)C2)sc2ccc(OC)cc21 | inconclusive: 85.5% |
| O=[N+]([O-])c1c(Nc2cccc(O)c2)cc(Cl)c2nonc12 | inconclusive: 86.4% |
| OCC1OC(n2cnc3c(NCc4ccco4)ncnc32)C(O)C1O (stereo not drawn) | inconclusive: 84.3% |
| O=[N+]([O-])c1ccc(NN=Cc2cc(Br)ccc2O)nc1 | inconclusive: 85.4% |
| CCOc1cc(/C=N/Nc2cc(C)nc(-n3nc(C)cc3C)n2)ccc1O | inconclusive: 85.8% |
| Cc1cc(C(=O)COC(=O)c2ccccc2Br)c(C)n1CC1CCCO1 (stereo not drawn) | inconclusive: 86.4% |

Reformatted with tabs: entries from further up.
Compound	inhibition
Cn1nc(CC(=O)Nc2ccc3c(c2)OCCO3)c2ccccc2c1=O	inconclusive: 85.5%
COc1ccc(/C=C2/CCC(CN3CCOCC3)C2=O)cc1 (stereo not drawn)	inconclusive: 82.7%

By substructure: the entries above with a CF3 group.

| Compound | inhibition |
| --- | --- |
| O=S(=O)(c1ccccc1C(F)(F)F)N1CCN(c2ncnc3sccc23)CC1 | inconclusive: 85.6% |
| O=C(/C(N=Nc1cccc(C(F)(F)F)c1)=C(/O)c1cccs1)C(F)(F)F | inactive: -11.2% |
